According to PMC12063043, “Exploring Tyramine's Role in the Formation of Supramolecular Adducts with Nonsteroidal Anti‐Inflammatory Drugs” (Chemistry (Weinheim an Der Bergstrasse, Germany), 2025):

Assay: Aqueous solubility tests by solution 1H NMR

COc1ccc2cc(C(C)C(=O)O)ccc2c1.NCCc1ccc(O)cc1 (centres unmarked) [NAP-TYA]
Increase in aqueous solubility of adduct versus pure API (aqueous solution, adduct versus pure API): 35 fold | Aqueous solubility (deionized H2O, stirred 3 days, filtered, 1H NMR at 298 K with TSP internal standard, concentration of the drug in solution, average of three measurements ± standard deviation): 735 ± 75 µg/mL
